Test results: patent publication EP1288221A1, “OLIGOPEPTIDES” (Sumitomo Electric Industries, Ltd., priority 2000, dated 2003)
At least one peptide structure holds a part that was inferred or is arguable (an end, a ring closure or a residue). Peptide text beside a SMILES is read from it. * marks the point of attachment. Biotin = O=C1N[C@H]2[C@H](CS[C@H]2CCCCC(=O)*)N1

Tests used:
[1] = tested on: Human keratinocytes (NHEK cell); assay: IL-8 inducing activity: IL-8 secretion by NHEK cells, measured by ELISA; type: cell-based
[2] = tested on: C57BL/6 mice; assay: Hair growth promotion: telogen to anagen transition after topical application to shaved back; type: in vivo; conditions: 5 days in a week

## CC[C@H](C)[C@H](NC(=O)[C@H](CO)NC(=O)[C@H](CCCCN)NC(=O)CCCC[C@@H]1SC[C@@H]2NC(=O)N[C@@H]21)C(=O)N[C@@H](CCC(=O)O)C(=O)N[C@@H](CCC(N)=O)C(=O)N[C@@H](CO)C(=O)N[C@@H](CS)C(=O)N[C@@H](CC(=O)O)C(=O)N[C@@H](CCC(N)=O)C(=O)N[C@@H](CC(=O)O)C(=O)N[C@@H](CCC(=O)O)C(=O)O [bk7] (Biotin-KSIEQSCDQDE-OH)
[1]; 50 µg/ml oligopeptide, 16-20 hours, Figure 4 / Example 4
  IL-8 inducing activity compared with oligopeptide b7: almost the same IL-8 inducing activity as that of oligopeptide b7

## CC[C@H](C)[C@H](NC(=O)[C@H](CO)NC(=O)CCCC[C@@H]1SC[C@@H]2NC(=O)N[C@@H]21)C(=O)N[C@@H](CCC(=O)O)C(=O)N[C@@H](CCC(N)=O)C(=O)N[C@@H](CO)C(=O)O [b7 Δ C5] (Biotin-SIEQS-OH)
[1]; 50 µg/ml oligopeptide, 16-20 hours, deletion variants compared with b7, Figure 3
  secretion amount of IL-8: significantly decreased

## CC[C@H](C)[C@H](NC(=O)[C@H](CO)NC(=O)CCCC[C@@H]1SC[C@@H]2NC(=O)N[C@@H]21)C(=O)N[C@@H](CCC(=O)O)C(=O)N[C@@H](CCC(N)=O)C(=O)N[C@@H](CO)C(=O)N[C@@H](CS)C(=O)N[C@@H](CC(=O)O)C(=O)N[C@@H](CCC(N)=O)C(=O)N[C@@H](CC(=O)O)C(=O)N[C@@H](CCC(=O)O)C(=O)O [b7] (Biotin-SIEQSCDQDE-OH)
[2]; 0.15 mg/ml in 50% ethanol/PBS, 0.2 ml applied once a day, until 38th day, grade symbols not defined
  Hair growth Activity: ○
[2]; 0.2 ml of 0.15 mg/ml solution applied once a day, Figure 1
  hair restoration as compared with the control group: promoted until about 30 days from the start of the test
[1]; final concentration of 50 µg/ml oligopeptide, cultivation for 16-20 hours, IL-8 in culture supernatants by ELISA, grade symbols not defined
  IL-8 inducing activity: ⓞ
